# From the supplement of paper PMC12823440, “Inhibitors supercharge kinase turnover through native proteolytic circuits” (Nature, 2025)
# Sequences of proteins named here, by UniProt entry; tags and fusion partners are left off. A change or cut given only in a name is not applied to a line headed by its entry.
# UniProt Q13555: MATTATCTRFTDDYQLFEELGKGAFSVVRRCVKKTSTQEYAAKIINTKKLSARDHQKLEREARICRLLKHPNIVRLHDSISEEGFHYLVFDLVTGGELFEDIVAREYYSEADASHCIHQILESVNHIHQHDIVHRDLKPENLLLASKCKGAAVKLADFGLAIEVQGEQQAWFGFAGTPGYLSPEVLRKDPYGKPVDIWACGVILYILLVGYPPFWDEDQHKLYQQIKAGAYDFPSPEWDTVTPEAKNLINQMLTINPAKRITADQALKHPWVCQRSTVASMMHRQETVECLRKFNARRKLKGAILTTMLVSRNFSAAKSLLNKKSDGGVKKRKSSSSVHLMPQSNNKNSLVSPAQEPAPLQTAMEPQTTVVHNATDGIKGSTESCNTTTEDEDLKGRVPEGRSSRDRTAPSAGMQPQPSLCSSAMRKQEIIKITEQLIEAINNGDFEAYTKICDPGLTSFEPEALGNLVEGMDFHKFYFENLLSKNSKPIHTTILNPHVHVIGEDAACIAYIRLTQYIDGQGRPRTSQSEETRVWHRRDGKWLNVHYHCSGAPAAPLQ
# UniProt P07949, whole entry M918T, looked up: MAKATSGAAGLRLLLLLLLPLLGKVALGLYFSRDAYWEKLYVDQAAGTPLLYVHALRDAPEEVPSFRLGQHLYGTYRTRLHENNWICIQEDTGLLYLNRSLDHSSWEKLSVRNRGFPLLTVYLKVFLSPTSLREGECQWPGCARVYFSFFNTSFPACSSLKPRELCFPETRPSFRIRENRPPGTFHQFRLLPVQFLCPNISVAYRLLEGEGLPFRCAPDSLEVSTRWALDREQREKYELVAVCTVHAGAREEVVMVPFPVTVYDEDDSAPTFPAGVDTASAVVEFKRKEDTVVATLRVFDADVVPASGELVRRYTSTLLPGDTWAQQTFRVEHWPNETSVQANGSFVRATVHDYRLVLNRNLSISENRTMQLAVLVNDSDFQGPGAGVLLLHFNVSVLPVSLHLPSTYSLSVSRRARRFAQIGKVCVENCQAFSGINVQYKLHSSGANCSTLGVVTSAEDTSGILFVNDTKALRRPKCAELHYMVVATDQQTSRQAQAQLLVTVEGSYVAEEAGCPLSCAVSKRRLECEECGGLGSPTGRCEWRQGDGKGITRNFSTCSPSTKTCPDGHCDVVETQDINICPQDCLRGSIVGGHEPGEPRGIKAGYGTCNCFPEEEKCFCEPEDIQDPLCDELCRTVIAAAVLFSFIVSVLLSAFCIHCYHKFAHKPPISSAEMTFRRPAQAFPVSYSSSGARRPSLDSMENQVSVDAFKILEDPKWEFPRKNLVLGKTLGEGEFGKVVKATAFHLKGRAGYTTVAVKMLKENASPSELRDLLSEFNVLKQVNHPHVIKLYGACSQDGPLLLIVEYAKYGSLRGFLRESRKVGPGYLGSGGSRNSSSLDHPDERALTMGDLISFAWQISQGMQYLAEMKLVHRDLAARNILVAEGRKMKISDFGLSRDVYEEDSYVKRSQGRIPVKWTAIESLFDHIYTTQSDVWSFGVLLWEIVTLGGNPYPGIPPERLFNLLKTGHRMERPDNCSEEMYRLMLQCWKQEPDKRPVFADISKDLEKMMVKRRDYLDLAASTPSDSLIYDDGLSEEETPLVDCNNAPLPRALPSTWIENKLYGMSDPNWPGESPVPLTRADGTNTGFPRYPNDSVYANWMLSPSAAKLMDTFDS
# UniProt Q96GD4, whole entry: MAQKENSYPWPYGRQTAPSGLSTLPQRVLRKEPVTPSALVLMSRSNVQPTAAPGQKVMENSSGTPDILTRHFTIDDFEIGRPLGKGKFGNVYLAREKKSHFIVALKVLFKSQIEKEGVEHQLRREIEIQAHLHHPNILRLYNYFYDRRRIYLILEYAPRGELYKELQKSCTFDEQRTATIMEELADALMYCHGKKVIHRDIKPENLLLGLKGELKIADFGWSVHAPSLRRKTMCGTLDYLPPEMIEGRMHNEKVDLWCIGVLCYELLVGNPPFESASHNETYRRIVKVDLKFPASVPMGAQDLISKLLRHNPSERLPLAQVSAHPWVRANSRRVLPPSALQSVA
# UniProt P21802, whole entry, looked up: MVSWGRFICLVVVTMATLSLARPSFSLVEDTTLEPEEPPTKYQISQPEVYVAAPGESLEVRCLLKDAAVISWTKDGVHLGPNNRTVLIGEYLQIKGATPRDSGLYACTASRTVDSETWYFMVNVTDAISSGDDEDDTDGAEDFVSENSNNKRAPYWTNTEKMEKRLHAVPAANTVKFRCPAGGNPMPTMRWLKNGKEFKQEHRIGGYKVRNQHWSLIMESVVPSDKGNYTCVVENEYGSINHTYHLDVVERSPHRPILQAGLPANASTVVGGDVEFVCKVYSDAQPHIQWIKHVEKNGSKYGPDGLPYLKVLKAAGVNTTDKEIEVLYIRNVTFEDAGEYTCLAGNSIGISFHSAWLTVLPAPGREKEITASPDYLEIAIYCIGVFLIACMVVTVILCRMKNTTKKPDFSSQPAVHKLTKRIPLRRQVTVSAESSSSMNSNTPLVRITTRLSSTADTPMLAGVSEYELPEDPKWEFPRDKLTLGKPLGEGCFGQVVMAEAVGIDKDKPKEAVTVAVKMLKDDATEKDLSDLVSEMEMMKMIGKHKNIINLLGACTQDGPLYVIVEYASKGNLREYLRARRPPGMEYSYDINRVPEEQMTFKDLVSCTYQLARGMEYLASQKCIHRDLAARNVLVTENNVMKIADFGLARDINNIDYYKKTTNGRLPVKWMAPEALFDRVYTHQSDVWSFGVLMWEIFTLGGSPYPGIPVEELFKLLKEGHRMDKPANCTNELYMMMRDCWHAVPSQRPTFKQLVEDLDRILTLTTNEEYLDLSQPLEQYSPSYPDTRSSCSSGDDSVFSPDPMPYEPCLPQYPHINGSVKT
# UniProt Q9UQM7, whole entry: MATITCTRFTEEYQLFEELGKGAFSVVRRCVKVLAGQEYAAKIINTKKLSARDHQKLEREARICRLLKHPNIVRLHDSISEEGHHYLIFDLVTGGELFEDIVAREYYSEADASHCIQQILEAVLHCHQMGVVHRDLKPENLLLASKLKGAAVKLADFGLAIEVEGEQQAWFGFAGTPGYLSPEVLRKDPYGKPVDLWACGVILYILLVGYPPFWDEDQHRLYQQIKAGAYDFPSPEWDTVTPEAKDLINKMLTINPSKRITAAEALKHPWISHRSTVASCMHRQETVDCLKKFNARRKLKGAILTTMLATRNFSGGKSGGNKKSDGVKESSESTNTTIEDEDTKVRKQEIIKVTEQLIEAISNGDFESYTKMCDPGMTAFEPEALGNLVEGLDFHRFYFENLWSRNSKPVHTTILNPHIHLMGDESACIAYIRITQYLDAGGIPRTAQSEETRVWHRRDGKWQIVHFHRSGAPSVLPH
# UniProt P23458: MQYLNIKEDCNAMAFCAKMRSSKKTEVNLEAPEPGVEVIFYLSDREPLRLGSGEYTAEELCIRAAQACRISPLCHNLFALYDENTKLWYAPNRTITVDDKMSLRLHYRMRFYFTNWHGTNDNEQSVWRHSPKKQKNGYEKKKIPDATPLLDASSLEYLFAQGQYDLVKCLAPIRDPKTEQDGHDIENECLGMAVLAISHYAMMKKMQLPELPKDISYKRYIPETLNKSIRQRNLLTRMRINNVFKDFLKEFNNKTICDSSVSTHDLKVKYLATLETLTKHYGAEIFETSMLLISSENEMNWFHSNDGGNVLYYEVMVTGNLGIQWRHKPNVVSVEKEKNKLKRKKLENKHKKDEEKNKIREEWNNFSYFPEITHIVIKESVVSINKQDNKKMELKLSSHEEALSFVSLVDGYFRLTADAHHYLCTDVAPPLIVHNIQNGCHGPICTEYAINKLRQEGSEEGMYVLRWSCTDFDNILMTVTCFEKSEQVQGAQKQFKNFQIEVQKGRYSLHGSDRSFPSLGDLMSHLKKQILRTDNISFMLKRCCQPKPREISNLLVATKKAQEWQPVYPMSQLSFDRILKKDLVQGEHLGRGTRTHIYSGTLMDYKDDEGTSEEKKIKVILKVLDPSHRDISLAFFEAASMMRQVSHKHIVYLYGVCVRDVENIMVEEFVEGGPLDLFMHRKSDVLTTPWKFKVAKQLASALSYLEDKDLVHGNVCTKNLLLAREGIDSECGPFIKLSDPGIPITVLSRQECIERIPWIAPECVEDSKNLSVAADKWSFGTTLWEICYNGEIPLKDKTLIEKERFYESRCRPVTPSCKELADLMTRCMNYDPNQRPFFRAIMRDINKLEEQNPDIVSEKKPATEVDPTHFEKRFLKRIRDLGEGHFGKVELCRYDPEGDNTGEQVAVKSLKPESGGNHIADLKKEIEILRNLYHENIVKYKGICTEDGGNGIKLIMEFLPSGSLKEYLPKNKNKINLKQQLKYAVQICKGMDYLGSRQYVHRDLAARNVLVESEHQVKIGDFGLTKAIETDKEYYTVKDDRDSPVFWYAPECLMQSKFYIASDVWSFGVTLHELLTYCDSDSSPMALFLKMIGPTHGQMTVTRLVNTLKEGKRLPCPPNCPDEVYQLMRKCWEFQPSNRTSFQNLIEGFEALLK
# UniProt P43403: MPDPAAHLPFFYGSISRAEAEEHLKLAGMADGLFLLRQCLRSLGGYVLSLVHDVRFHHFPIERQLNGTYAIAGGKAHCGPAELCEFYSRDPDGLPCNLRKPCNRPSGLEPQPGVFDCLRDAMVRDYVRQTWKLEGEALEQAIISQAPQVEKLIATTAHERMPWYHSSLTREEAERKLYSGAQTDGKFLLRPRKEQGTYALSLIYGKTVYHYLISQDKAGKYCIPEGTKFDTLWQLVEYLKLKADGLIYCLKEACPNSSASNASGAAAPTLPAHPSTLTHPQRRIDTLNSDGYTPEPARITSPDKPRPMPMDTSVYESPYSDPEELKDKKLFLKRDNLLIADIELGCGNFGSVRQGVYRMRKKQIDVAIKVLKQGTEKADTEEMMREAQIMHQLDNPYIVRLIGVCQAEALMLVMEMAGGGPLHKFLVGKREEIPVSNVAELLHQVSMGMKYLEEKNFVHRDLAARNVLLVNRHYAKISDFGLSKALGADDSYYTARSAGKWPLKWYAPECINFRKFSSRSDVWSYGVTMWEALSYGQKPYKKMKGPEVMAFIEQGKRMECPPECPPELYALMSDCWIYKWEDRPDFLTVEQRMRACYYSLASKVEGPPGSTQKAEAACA
# UniProt P31749: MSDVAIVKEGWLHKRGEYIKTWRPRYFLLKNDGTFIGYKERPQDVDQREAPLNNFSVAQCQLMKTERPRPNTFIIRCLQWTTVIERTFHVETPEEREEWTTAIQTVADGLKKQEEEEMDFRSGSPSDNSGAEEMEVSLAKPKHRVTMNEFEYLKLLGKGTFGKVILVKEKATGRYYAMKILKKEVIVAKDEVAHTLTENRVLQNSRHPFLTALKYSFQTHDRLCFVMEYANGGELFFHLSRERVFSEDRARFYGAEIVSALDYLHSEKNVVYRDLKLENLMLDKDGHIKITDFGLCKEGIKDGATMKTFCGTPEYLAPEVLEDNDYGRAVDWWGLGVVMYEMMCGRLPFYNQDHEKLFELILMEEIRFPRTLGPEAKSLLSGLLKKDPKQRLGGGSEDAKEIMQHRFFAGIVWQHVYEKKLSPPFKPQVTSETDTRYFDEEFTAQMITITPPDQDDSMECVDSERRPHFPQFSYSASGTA
# UniProt Q15131: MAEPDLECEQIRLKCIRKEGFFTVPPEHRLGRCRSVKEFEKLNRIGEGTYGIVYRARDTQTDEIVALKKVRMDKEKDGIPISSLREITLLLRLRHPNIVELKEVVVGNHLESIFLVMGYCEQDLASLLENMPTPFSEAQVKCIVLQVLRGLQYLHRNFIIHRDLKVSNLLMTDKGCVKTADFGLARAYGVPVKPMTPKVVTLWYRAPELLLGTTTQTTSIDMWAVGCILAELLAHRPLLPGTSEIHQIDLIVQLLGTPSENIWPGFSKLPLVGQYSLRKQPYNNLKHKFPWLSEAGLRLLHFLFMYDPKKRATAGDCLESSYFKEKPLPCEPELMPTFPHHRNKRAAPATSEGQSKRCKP
# UniProt Q9NYA1, whole entry: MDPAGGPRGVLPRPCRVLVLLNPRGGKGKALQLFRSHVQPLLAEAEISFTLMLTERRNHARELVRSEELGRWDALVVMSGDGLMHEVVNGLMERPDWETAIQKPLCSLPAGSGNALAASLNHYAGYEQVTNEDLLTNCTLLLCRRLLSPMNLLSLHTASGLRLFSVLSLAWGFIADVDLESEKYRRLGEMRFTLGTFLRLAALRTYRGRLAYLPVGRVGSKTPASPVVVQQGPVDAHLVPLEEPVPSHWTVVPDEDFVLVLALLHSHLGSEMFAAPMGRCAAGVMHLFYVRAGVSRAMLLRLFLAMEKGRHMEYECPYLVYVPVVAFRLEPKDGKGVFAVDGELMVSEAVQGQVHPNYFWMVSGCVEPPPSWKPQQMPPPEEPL
# This is one part of the list. The calls rarely recur for the same compound in another form.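 Kinases, fused to nanoluciferase, were expressed in K562 cells; luminescence was measured every 4 h from 2 to 18 h as percent of control (DMSO = 100%, positive control = 0%). A time point is decreased if signal falls significantly (2 sigma). Hits were called by the authors by a rule that is not shown; the count of time points alone does not decide it.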
# Compound: N#CCC1(n2cc(-c3ncnc4[nH]ccc34)cn2)CN(C2CCN(C(=O)c3ccnc(C(F)(F)F)c3F)CC2)C1 [Itacitinib adipate]
# Test: number of time points (of 5) at which kinase-Nluc abundance scored as decreased, DMSO-normalised (count); higher = more persistent destabilization
# Conditions: 10 µM; K562; 2-18 h
row,Target,number of time points
1,CAMK2G (UniProt Q13555),0
2,PDPK1 (UniProt O15530),0
3,LYN (UniProt P07948),0
4,EGFR_T790M (UniProt P00533),0
5,LIMK1 (UniProt P53667),0
6,AURKA (UniProt O14965),0
7,HER2 (UniProt P04626),0
8,RET_M918T (clone: RET_mut) (UniProt P07949),0
9,AURKB (UniProt Q96GD4),0
10,SYK (UniProt P43405),0
11,FGFR2 (UniProt P21802),0
12,CAMK2A (UniProt Q9UQM7),0
13,CSF1R (UniProt P07333),0
14,PAK4 (UniProt O96013),0
15,FGFR3 (UniProt P22607),0
16,PLK1 (UniProt P53350),0

row,Target,number of time points
1,SRC (UniProt P12931),0
2,LMTK2 (UniProt Q8IWU2),0
3,LCK (UniProt P06239),0
4,DYRK1B (UniProt Q9Y463),0
5,RAF1_S257L (clone: RAF1_mut) (UniProt P04049),0
6,EGFR_L718V (UniProt P00533),0
7,JAK1 (UniProt P23458),0
8,BRAF_V600E,0
9,LIMK2 (UniProt P53671),0
10,BRAF (UniProt P15056),0
11,ZAP70 (UniProt P43403),0
12,AKT1 (UniProt P31749),0
13,EGFR_L858R (UniProt P00533),0
14,RIPK1 (UniProt Q13546),0
15,CDK10 (UniProt Q15131),0
16,SPHK1 (UniProt Q9NYA1),0

# Compound: N#CCC1(n2cc(-c3ncnc4[nH]ccc34)cn2)CN(C2CCN(C(=O)c3ccnc(C(F)(F)F)c3F)CC2)C1 [Itacitinib]
# Test: as above
# Conditions: 10 µM; K562; 2-18 h
row,Target,number of time points
1,CAMK2G (UniProt Q13555),0
2,PDPK1 (UniProt O15530),0
3,LYN (UniProt P07948),0
4,EGFR_T790M (UniProt P00533),0
5,LIMK1 (UniProt P53667),0
6,AURKA (UniProt O14965),0
7,HER2 (UniProt P04626),0
8,RET_M918T (clone: RET_mut) (UniProt P07949),0
9,AURKB (UniProt Q96GD4),0
10,SYK (UniProt P43405),0
11,FGFR2 (UniProt P21802),0
12,CAMK2A (UniProt Q9UQM7),0
13,CSF1R (UniProt P07333),0
14,PAK4 (UniProt O96013),0
15,FGFR3 (UniProt P22607),0
16,PLK1 (UniProt P53350),0

row,Target,number of time points
1,SRC (UniProt P12931),0
2,LMTK2 (UniProt Q8IWU2),0
3,LCK (UniProt P06239),0
4,DYRK1B (UniProt Q9Y463),0
5,RAF1_S257L (clone: RAF1_mut) (UniProt P04049),0
6,EGFR_L718V (UniProt P00533),0
7,JAK1 (UniProt P23458),0
8,BRAF_V600E,0
9,LIMK2 (UniProt P53671),0
10,BRAF (UniProt P15056),0
11,ZAP70 (UniProt P43403),0
12,AKT1 (UniProt P31749),0
13,EGFR_L858R (UniProt P00533),0
14,RIPK1 (UniProt Q13546),0
15,CDK10 (UniProt Q15131),0
16,SPHK1 (UniProt Q9NYA1),0
